In the supplement of paper PMC6078165:
± gives the standard deviation of the averaged measurements. The reference is the same well before dosing, and untreated signal decays as well.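 Fibroblast labels denote human fibroblasts, mainly primary ones from uterus (C12385, HUF), lung (H6013), bone (Hs27A), adrenal (HADF) and skin (WS1), plus mammary HMF and breast cancer-associated Hs343T. Cancer cells are basal-like or mesenchymal-like triple-negative breast cancer lines. A hit is a response shift exceeding 3x replicate standard deviation. The tissue of the other fibroblasts is not given here.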

Test system: BT20
Assay: relative JC-1 red fluorescence (viability) vs pre-drug, coculture with fibroblast (fraction); higher = more viable cancer cells
Details: 10 µM
Experimental: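 JC-1 labelled TNBC cells cocultured 1:1 (1,500 cells each) with CellTrace Violet stained primary or stromal fibroblasts in 384-well plates in FluoroBrite medium, treated with one of 42 anticancer drugs at 0.1, 1, 10 or 100 uM. JC-1 red fluorescence (mitochondrial integrity in cancer cells only) was read by plate reader every 8 h for 72 h. Values are normalised to each well's pre-drug value. The stock of one drug was tenfold lower, so its dose labels may be too high.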

Nc1ccn([C@@H]2O[C@H](CO)[C@@H](O)C2(F)F)c(=O)n1 [Gemcitabine]
relative JC-1 red fluorescence
Details	8 h	16 h	24 h	32 h	40 h	48 h	56 h	64 h	72 h
coculture fibroblast: C12385	0.913 ± 0.013	0.804 ± 0.015	0.749 ± 0.017	0.686 ± 0.029	0.628 ± 0.025	0.591 ± 0.021	0.557 ± 0.025	0.525 ± 0.029	0.508 ± 0.036
coculture fibroblast: H6013	0.955 ± 0.04	0.858 ± 0.014	0.806 ± 0.053	0.72 ± 0.034	0.657 ± 0.038	0.63 ± 0.048	0.63 ± 0.065	0.618 ± 0.065	0.618 ± 0.07
coculture fibroblast: H6019	0.866 ± 0.013	0.788 ± 0.018	0.721 ± 0.022	0.634 ± 0.018	0.56 ± 0.011	0.521 ± 0.0069	0.4772 ± 0.0036	0.447 ± 0.009	0.436 ± 0.011
coculture fibroblast: H6076	0.955 ± 0.049	0.89 ± 0.034	0.796 ± 0.038	0.741 ± 0.048	0.69 ± 0.077	0.645 ± 0.066	0.618 ± 0.079	0.601 ± 0.071	0.585 ± 0.064
coculture fibroblast: H6231	0.8021 ± 0.002	0.971 ± 0.026	0.841 ± 0.013	0.781 ± 0.037	0.737 ± 0.035	0.681 ± 0.044	0.653 ± 0.075	0.611 ± 0.059	0.58 ± 0.072
coculture fibroblast: HADF	0.785 ± 0.058	0.8688 ± 0.0044	0.817 ± 0.012	0.7777 ± 0.0077	0.738 ± 0.011	0.698 ± 0.028	0.673 ± 0.033	0.645 ± 0.025	0.618 ± 0.02
coculture fibroblast: HCFa	0.946 ± 0.027	0.855 ± 0.021	0.785 ± 0.014	0.7211 ± 0.007	0.649 ± 0.027	0.588 ± 0.026	0.545 ± 0.045	0.501 ± 0.046	0.463 ± 0.05
coculture fibroblast: HCPF	0.871 ± 0.14	0.92 ± 0.037	0.853 ± 0.033	0.791 ± 0.025	0.751 ± 0.0083	0.7106 ± 0.0014	0.6654 ± 0.0043	0.652 ± 0.023	0.603 ± 0.017
coculture fibroblast: HHSteC	0.947 ± 0.02	0.8772 ± 0.006	0.883 ± 0.02	0.814 ± 0.0094	0.79 ± 0.032	0.759 ± 0.025	0.748 ± 0.048	0.731 ± 0.063	0.712 ± 0.069
coculture fibroblast: HMF	0.97 ± 0.042	0.892 ± 0.035	0.793 ± 0.021	0.745 ± 0.0083	0.6978 ± 0.0065	0.65 ± 0.026	0.604 ± 0.027	0.57 ± 0.035	0.543 ± 0.041
coculture fibroblast: HPFa	0.966 ± 0.022	0.883 ± 0.015	0.855 ± 0.017	0.775 ± 0.028	0.746 ± 0.059	0.696 ± 0.075	0.666 ± 0.097	0.644 ± 0.11	0.616 ± 0.11
coculture fibroblast: HUF	0.9198 ± 0.0047	0.792 ± 0.014	0.756 ± 0.02	0.668 ± 0.032	0.628 ± 0.031	0.579 ± 0.043	0.539 ± 0.055	0.506 ± 0.051	0.487 ± 0.045
coculture fibroblast: Hs5	0.726 ± 0.0073	0.945 ± 0.022	0.85 ± 0.028	0.803 ± 0.03	0.756 ± 0.02	0.724 ± 0.031	0.697 ± 0.043	0.668 ± 0.034	0.655 ± 0.033
coculture fibroblast: Hs27A	0.906 ± 0.0093	0.863 ± 0.021	0.927 ± 0.016	0.917 ± 0.023	0.896 ± 0.024	0.875 ± 0.017	0.871 ± 0.022	0.853 ± 0.028	0.824 ± 0.025
coculture fibroblast: Hs343T	0.92 ± 0.08	0.9 ± 0.021	0.8013 ± 0.0024	0.751 ± 0.014	0.688 ± 0.026	0.63 ± 0.034	0.575 ± 0.042	0.546 ± 0.048	0.509 ± 0.058
coculture fibroblast: WS1	0.8608 ± 0.005	0.7653 ± 0.003	0.719 ± 0.013	0.639 ± 0.014	0.586 ± 0.012	0.553 ± 0.0085	0.512 ± 0.0076	0.477 ± 0.01	0.459 ± 0.0069
